# This is one part of the list. For some of these results: Construct or isoform of the protein are uncertain.
# Columns and labels:
# Test in all cases: protein microarray (ProtoArray v5.0), streptavidin-Alexa Fluor 647
# Details in all cases: 3'-biotin; 20 mM Tris (pH 7.5), 5 mM MgCl2, 100 mM KCl, 0.1% Tween-20, A/T-rich and random oligonucleotide blockers; temperature not stated; high values mean tight binding
# RIT2 = target: T1, RIT2 (UniProt Q99578)
# T1 sequence: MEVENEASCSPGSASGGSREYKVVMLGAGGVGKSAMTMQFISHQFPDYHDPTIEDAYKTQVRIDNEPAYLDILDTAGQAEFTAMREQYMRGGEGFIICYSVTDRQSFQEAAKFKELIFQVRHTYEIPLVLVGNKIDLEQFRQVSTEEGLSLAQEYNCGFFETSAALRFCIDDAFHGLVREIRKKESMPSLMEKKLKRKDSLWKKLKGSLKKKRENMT
# RLBP1 (human) = tested on: RLBP1 (human)
# RLBP1L1 (human) = tested on: RLBP1L1 (human)
# [1] = tested on: RNA polymerase II-associated protein 3 (human)
# [2] = tested on: RNA-binding protein 40 (human)
# [3] = tested on: RNA-binding protein with multiple splicing (human)
# RNASE11 (human) = tested on: RNASE11 (human)
# RNASE8 (human) = tested on: RNASE8 (human)
# RNF11 (human) = tested on: RNF11 (human)
# RNF141 (human) = tested on: RNF141 (human)
sequence,measurement,setting,value
GGTGACAGGGGTATGGGGAGGGG [G4-2 biotinylated (Ct1)],binding signal,RIT2,4.81 z-score
same,binding signal,RLBP1 (human),-0.397 z-score
same,binding signal,RLBP1L1 (human),-0.399 z-score
same,binding signal,[1],6.32 z-score
same,binding signal,[2],3.18 z-score
same,binding signal,[3],-0.377 z-score
same,binding signal,RNASE11 (human),-0.383 z-score
same,binding signal,RNASE8 (human),-0.384 z-score
same,binding signal,RNF11 (human),-0.388 z-score
same,binding signal,RNF141 (human),-0.399 z-score

# At a glance, some entries already given:
sequence,measurement,setting,value
GGTGACAGGGGTATGGGGAGGGG [G4-2 biotinylated (Ct1)],binding signal,RNASE11 (human),-0.383 z-score
same,binding signal,RNASE8 (human),-0.384 z-score
